PubChem BioAssay AID504793 – Drosophila RNAi Screening Center | 2011

Purpose: 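Whole-genome screen for parts of the DNA damage checkpoint at G2/M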 (primary screen)
Cells: Drosophila S2R+ cells
Reagents: long dsRNA against Drosophila genes, about 0.25 µg dsRNA per well
Timing: 4 days of dsRNA, then 4 hours of drug before read-out
Treatment: doxorubicin 0.5 µM for 4 hours to cause double-strand breaks, in cells also given a low, harmless dose of dsRNA against nbs to sensitise the assay
Measured: 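Mitotic index as the number of phospho-histone H3-positive cells in each well following doxorubicin, given as raw counts without normalisation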
Scale: mitotic cells: higher = more cells in mitosis, weaker G2 arrest
Rule for the call: 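a call needs confirmation in secondary tests, with other dsRNAs and a check of mitotic timing without damage, not just a high primary count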
Calls: active = confirmed in follow-up tests; inactive = not confirmed
In all, the deposit lists about 23,000 reagents; below is a random part of those with a known target gene and a result. In the full data, 62 (0.27%) are marked active. 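Calls come from follow-up tests whose scores are not deposited, so confirmed genes may have low counts here; counts are not normalised per plate.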 Raw values vary from plate to plate and are shown uncorrected. Unmarked entries are inactive. Reagent sequences are not shown.

CG13428 [DRSC06390] gave mitotic cells, replicate 1 = 5. CG6770 [DRSC02992] showed mitotic cells, replicate 1 = 4; mitotic cells, replicate 2 = 9. Knock-down of CG6770 [DRSC26414] resulted in: mitotic cells, replicate 1 = 8. CG15043 [DRSC19619] scored mitotic cells, replicate 1 = 8. CG15043 [DRSC29563] gave mitotic cells, replicate 1 = 8. Silencing of Aplip1 (APPL-interacting protein 1) [DRSC08697] came out at: mitotic cells, replicate 1 = 4.

Depletion of Aplip1 (APPL-interacting protein 1) [DRSC21587] gave: mitotic cells, replicate 1 = 10. For Aplip1 (APPL-interacting protein 1) [DRSC26312], the values are mitotic cells, replicate 1 = 7. For spz6 (spatzle 6) [DRSC04533], the entry reads mitotic cells, replicate 1 = 6. Depletion of CG4998 [DRSC10466] came out at: mitotic cells, replicate 1 = 4. Silencing of CG4998 [DRSC22911] resulted in: mitotic cells, replicate 1 = 14. Against dnd (dead end) [DRSC16064], the entry reads mitotic cells, replicate 1 = 7.

Knock-down of CG14803 [DRSC18556] came out at: mitotic cells, replicate 1 = 14. For TfIIA-L (Transcription factor IIA L) [DRSC16882], the values are mitotic cells, replicate 1 = 11.

A stretch taken from the entries so far, as a working copy:
CG6770 [DRSC02992]: mitotic cells, replicate 1 = 4; mitotic cells, replicate 2 = 9
CG6770 [DRSC26414]: mitotic cells, replicate 1 = 8
CG15043 [DRSC19619]: mitotic cells, replicate 1 = 8

The listing continues.
For Nepl14 (Neprilysin-like 14) [DRSC15631], the values are mitotic cells, replicate 1 = 9. Against t-cup (tetleys-cup) [DRSC01254], the entry reads mitotic cells, replicate 1 = 24. Against t-cup (tetleys-cup) [DRSC27514] the deposit lists mitotic cells, replicate 1 = 11. Depletion of CG18131 [DRSC22983] gave: mitotic cells, replicate 1 = 15. CG13551 [DRSC21847] gave mitotic cells, replicate 1 = 8. Depletion of CG7685 [DRSC16285] resulted in: mitotic cells, replicate 1 = 12.

After knock-down of CG7685 [DRSC27560], the screen gave mitotic cells, replicate 1 = 8. After knock-down of CG34443 [DRSC29357], the screen gave mitotic cells, replicate 1 = 5. Against Fpgs2 (Folylpolyglutamate synthase 2) [DRSC00600], the values are mitotic cells, replicate 1 = 5.
